These are yes or no findings as the source states them, for the method shown. Binding seen in cells or lysates may run through a third protein. These calls come from enrichment with a bait or labelling near it, and not all partners need be listed. For some of these results: Where a sequence is shown, tags or fusion partners need not be part of it.
T1: GFP-ATG5 K130R (mouse) (UniProt Q99J83)
T1 sequence: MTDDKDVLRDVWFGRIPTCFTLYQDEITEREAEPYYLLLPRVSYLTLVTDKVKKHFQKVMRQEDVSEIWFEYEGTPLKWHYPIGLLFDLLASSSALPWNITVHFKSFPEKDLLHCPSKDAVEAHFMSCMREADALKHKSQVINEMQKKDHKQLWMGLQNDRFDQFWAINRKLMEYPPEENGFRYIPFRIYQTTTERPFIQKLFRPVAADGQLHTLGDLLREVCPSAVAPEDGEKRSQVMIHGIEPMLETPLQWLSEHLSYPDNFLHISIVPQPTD

Protein sequences, listed by entry. Tags and fused reporters are not part of them. Residues count along the entry.
UniProt Q9CQY1: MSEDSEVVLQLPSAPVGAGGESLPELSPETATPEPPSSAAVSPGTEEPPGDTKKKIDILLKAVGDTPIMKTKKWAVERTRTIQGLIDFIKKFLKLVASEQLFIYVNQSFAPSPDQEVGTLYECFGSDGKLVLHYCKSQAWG
UniProt Q07113, residues 36-2483: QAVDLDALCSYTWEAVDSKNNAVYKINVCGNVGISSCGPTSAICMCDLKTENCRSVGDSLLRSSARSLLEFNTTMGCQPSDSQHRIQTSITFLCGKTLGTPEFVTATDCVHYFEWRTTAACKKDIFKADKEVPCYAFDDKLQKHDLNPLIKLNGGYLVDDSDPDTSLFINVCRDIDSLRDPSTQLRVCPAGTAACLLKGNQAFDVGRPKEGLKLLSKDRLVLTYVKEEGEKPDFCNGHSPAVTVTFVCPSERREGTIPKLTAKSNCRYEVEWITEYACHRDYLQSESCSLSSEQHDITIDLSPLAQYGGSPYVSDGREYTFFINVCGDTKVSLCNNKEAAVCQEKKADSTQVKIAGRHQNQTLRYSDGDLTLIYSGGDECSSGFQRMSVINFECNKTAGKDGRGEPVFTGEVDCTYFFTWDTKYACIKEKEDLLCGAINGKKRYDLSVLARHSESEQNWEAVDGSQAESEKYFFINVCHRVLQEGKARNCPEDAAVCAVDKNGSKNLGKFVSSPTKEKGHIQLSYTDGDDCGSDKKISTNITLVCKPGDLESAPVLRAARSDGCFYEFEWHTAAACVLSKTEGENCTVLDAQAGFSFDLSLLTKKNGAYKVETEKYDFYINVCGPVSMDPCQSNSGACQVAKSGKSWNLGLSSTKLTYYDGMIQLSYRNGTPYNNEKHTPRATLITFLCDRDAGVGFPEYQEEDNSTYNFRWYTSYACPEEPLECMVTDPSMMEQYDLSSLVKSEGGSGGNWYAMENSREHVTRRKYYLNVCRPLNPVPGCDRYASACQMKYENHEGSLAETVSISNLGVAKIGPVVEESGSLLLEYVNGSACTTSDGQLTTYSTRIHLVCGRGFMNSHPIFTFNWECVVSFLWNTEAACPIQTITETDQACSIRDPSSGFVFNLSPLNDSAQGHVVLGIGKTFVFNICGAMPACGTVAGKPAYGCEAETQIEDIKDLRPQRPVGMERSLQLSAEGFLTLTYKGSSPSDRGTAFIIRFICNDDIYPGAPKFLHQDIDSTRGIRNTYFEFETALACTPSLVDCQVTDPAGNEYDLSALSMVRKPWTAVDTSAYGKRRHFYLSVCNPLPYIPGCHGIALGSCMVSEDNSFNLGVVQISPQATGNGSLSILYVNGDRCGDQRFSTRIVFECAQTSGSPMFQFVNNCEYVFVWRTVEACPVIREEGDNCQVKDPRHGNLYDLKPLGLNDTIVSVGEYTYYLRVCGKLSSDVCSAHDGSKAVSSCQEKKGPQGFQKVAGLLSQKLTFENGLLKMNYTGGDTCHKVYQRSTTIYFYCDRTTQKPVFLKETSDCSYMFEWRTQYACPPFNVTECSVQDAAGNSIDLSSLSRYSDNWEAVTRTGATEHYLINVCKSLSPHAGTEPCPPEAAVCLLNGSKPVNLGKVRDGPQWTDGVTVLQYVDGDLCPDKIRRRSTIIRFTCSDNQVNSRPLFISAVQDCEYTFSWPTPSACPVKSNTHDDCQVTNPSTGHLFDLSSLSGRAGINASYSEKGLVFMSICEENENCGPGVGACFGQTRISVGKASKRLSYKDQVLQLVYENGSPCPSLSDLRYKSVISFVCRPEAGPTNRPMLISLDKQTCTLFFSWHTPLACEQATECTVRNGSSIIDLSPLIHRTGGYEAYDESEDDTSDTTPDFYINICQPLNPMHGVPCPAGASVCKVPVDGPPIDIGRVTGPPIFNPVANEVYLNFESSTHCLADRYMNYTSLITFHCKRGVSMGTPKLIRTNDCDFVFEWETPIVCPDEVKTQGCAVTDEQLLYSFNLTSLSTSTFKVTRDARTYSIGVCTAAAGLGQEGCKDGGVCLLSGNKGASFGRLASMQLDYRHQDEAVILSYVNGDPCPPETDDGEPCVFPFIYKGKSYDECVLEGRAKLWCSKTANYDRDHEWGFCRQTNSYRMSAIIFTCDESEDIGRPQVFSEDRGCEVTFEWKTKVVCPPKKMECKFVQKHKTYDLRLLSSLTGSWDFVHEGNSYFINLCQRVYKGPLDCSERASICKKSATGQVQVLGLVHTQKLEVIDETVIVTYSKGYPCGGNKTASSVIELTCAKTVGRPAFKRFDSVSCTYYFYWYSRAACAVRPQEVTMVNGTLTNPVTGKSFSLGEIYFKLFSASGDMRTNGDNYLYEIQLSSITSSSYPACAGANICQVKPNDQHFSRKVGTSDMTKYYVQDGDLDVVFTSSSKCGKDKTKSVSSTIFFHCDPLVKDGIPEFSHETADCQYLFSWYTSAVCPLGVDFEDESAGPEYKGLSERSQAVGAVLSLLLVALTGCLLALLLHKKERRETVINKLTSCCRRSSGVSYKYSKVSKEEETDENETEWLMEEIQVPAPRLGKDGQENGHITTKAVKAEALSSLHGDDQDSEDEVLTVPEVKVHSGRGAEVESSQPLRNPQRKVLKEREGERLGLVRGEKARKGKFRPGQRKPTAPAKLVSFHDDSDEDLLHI
UniProt P17427: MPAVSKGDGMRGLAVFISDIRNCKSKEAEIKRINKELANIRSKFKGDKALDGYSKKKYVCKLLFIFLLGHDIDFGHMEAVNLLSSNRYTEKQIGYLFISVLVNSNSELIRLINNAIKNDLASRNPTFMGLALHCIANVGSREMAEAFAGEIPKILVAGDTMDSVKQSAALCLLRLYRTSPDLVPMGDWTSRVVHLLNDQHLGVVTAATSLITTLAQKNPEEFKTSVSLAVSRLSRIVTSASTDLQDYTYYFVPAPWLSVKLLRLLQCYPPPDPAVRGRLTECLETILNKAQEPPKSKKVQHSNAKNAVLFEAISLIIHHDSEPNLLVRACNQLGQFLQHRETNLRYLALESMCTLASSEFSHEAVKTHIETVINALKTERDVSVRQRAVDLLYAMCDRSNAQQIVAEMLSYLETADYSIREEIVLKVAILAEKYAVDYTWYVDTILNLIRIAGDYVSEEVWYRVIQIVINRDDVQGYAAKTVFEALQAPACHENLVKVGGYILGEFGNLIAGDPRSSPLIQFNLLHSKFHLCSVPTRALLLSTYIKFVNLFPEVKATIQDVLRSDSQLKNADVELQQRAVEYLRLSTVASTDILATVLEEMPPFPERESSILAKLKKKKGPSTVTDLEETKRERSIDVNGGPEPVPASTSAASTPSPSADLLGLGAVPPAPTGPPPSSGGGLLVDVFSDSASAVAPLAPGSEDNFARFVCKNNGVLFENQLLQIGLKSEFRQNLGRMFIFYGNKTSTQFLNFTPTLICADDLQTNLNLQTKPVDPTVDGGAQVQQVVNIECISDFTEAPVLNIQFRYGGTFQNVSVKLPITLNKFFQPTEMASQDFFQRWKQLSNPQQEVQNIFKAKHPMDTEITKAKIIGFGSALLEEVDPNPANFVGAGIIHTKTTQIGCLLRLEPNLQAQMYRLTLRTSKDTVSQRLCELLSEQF
UniProt P60521: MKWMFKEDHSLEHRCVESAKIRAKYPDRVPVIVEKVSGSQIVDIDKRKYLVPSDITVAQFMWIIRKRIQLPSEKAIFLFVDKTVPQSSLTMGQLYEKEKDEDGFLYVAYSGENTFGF
UniProt P17426: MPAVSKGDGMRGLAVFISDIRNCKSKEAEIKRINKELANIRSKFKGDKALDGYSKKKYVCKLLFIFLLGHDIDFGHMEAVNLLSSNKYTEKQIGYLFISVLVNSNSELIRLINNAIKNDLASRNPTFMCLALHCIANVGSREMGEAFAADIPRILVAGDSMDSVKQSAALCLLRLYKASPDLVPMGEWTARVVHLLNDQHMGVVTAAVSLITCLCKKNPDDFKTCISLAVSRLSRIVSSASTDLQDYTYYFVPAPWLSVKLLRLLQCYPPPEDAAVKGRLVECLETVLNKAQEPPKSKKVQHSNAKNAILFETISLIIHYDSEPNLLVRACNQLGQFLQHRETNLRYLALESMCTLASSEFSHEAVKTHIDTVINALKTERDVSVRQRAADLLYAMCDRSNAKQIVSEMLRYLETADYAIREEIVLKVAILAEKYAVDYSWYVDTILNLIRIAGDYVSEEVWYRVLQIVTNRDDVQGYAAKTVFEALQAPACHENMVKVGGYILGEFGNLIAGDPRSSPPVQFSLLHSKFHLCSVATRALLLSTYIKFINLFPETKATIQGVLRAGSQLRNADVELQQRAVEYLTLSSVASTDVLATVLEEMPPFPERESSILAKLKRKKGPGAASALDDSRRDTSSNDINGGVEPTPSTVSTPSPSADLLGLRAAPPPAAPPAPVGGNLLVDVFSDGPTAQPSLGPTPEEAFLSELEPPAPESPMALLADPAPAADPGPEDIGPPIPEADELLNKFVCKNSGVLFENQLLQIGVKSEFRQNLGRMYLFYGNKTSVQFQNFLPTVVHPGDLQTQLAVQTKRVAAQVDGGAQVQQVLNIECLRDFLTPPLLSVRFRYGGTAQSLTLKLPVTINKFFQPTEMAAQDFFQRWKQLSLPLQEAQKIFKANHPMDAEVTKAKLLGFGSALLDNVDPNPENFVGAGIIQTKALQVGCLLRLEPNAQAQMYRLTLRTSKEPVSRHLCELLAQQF
UniProt Q6P4T0: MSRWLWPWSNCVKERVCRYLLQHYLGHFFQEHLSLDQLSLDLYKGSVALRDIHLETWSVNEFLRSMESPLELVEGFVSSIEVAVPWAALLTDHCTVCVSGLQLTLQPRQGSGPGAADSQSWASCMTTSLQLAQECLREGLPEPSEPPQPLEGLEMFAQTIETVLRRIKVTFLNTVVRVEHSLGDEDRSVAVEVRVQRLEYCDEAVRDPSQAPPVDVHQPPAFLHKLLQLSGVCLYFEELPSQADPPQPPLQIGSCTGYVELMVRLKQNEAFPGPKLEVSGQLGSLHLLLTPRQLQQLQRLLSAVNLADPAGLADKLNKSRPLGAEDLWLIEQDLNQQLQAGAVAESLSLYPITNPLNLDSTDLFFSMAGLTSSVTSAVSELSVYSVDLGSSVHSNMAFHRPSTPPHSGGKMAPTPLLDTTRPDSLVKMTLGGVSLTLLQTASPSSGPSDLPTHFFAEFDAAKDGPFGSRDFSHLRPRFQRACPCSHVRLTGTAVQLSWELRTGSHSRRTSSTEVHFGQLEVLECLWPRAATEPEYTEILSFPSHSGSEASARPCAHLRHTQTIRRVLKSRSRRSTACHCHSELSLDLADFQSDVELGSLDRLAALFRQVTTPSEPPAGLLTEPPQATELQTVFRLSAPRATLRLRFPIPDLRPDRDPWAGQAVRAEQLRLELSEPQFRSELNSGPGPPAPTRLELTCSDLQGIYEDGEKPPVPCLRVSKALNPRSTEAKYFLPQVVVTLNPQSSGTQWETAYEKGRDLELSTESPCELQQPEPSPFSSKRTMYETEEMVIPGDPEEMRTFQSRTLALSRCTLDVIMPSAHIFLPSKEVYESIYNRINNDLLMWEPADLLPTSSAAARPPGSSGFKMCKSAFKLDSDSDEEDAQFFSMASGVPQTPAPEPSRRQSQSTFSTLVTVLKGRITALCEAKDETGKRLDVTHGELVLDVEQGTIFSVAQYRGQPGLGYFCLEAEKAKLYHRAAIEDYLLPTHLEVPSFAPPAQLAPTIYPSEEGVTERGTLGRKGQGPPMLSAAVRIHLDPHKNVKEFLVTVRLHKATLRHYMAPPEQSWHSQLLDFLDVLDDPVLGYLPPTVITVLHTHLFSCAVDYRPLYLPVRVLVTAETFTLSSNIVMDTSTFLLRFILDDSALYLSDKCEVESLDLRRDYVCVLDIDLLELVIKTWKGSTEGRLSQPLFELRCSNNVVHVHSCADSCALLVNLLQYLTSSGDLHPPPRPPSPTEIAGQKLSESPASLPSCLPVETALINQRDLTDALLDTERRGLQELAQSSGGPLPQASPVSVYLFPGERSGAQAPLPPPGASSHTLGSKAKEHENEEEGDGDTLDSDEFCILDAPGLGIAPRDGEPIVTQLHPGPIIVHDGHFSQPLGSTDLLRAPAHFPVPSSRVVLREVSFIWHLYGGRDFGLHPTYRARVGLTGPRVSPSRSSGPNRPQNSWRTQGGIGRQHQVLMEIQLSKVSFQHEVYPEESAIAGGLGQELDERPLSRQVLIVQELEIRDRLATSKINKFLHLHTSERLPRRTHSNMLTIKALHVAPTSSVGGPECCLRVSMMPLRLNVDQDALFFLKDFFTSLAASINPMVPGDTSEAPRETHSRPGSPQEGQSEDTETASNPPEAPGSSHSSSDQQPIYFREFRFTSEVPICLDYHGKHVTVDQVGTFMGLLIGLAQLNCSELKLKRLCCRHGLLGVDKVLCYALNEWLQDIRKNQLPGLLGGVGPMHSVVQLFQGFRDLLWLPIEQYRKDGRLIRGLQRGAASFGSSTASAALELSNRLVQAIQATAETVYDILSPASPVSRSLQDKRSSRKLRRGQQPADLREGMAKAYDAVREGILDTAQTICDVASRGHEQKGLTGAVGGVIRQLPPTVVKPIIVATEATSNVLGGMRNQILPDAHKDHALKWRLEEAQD


What was measured:
[1] = target: wild-type GFP-ATG5 (mouse) (UniProt Q99J83); test: affinity purification with mass spectrometry; GFP-Trap immunoisolation from lysates of SILAC-labelled atg5-/- MEFs stably expressing GFP, WT GFP-ATG5 or GFP-ATG5 K130R, starved 1 h; LC-MS/MS; hits: 2 or more peptides, >2-fold enrichment over GFP
[2] = target: wild-type GFP-ATG5 (mouse) (UniProt Q99J83); test: affinity purification with mass spectrometry; GFP-Trap SILAC proteomics from atg3-/- MEFs stably expressing GFP, WT GFP-ATG5 or GFP-ATG5 K130R, after nutrient starvation; hits: peptide count 2 or more, >2-fold enriched over GFP and GFP-ATG5 K130R; bait expressed alongside endogenous ATG5
GFP-ATG5 K130R (mouse) = target: T1, GFP-ATG5 K130R (mouse); test: affinity purification with mass spectrometry; GFP-Trap immunoisolation from lysates of SILAC-labelled atg5-/- MEFs stably expressing GFP, WT GFP-ATG5 or GFP-ATG5 K130R, starved 1 h; LC-MS/MS; hits: 2 or more peptides, >2-fold enrichment over GFP

Molecule	binding [1]	binding [2]	binding (GFP-ATG5 K130R (mouse))
PIK3C2A (phosphatidylinositol-4-phosphate 3-kinase catalytic subunit type 2 alpha) (from UniProt Q61194 1-1686)	binds	binds	–
DNMBP [dynamin binding protein] (from UniProt Q6TXD4 1-1580)	binds	–	–
ATG12 (from UniProt Q9CQY1 1-141)	–	binds	–
IGF2R/CI-M6PR (insulin-like growth factor 2 receptor) (from UniProt Q07113 36-2483)	binds	–	–
clathrin adaptor AP1 subunit G1 (from UniProt P22892 1-822)	binds	–	–
SYNJ1 [synaptojanin 1] (from UniProt Q8CHC4 1-1574)	binds	–	–
clathrin adaptor AP2 subunit A2 (from UniProt P17427 1-938)	binds	–	–
ATG7 (protein, UniProt Q9D906 1-698) MGDPGLAKLQFAPFNSALDVGFWHELTQKKLNEYRLDEAPKDIKGYYYNGDSAGLPTRLTLEFSAFDMSASTPAHCCPAMGTLHNTNTLEAFKTADKKLLLEQSANEIWEAIKSGAALENPMLLNKFLLLTFADLKKYHFYYWFCCPALCLPESIPLIRGPVSLDQRLSPKQIQALEHAYDDLCRAEGVTALPYFLFKYDDDTVLVSLLKHYSDFFQGQRTKITVGVYDPCNLAQYPGWPLRNFLVLAAHRWSGSFQSVEVLCFRDRTMQGARDVTHSIIFEVKLPEMAFSPDCPKAVGWEKNQKGGMGPRMVNLSGCMDPKRLAESSVDLNLKLMCWRLVPTLDLDKVVSVKCLLLGAGTLGCNVARTLMGWGVRHVTFVDNAKISYSNPVRQPLYEFEDCLGGGKPKALAAAERLQKIFPGVNARGFNMSIPMPGHPVNFSDVTMEQARRDVEQLEQLIDNHDVIFLLMDTRESRWLPTVIAASKRKLVINAALGFDTFVVMRHGLKKPKQQGAGDLCPSHLVAPADLGSSLFANIPGYKLGCYFCNDVVAPGDSTRDRTLDQQCTVSRPGLAVIAGALAVELMVSVLQHPEGGYAIASSSDDRMNEPPTSLGLVPHQIRGFLSRFDNVLPVSLAFDKCTACSPKVLDQYEREGFTFLAKVFNSSHSFLEDLTGLTLLHQETQAAEIWDMSDEETV	binds	binds	–
GAK [cyclin G associated kinase] (protein, UniProt Q99KY4 1-1305) MSLLQSALDFLAGPGSLGGAAGRDQSDFVGQTVELGELRLRVRRVLAEGGFAFVYEAQDLGSGREYALKRLLSNEEEKNRAIIQEVCFLKKLSGHPNIVQFCSAASIGKEESDTGQAEFLLLTELCKGQLVEFLKRVECKGPLSCDSILKIFYQTCRAVQHMHRQKPPIIHRDLKVENLLLSNQGTIKLCDFGSATTISHYPDYSWSAQKRAMVEEEITRNTTPMYRTPEIVDLYSNFPIGEKQDIWALGCILYLLCFRQHPFEDGAKLRIVNGKYSIPVNDTRYTVFHDLIRAMLKVNPVERLSIAEVVRQLQEIAAARNVNPKAPITELLEQNGGYGNSGPSRAQPPCGGTVNSSGVLALAEYDQPYGGFLDILRGGTERLFTNLKDTSSKVIQSVANYAKGDLDISYITSRIAVMSFPAEGVESAIKNNIEDVRMFLDAKHPGHYAVYNLSPRIYRASKFHNRVTECGWAVRRAPHLHSLYTLCRSMHAWLREDHRNVCVVHCMDGRAASAVAVCAFLCFCRLFSTAEAAVYMFSMKRCPPGIWPSHKRYIEYVCDMVAEEPITPHSKPMLVKSVVMTPVPLFSKQRNGCRPFCEVYVGEERVTTTSQEYDRMKEFKIEDGKAVIPLGVTVQGDVLIIIYHARATLGGRLQAKMASMKMFQIQFHTGFVPRNATTVKFAKYDLDACDIQEKYPDLFQVNLEVEVEPRDRPSREAPPWENTSLRGLNPKILFSNREEQQDILSKFGKPELPRQPGSTAQYDAEAGSPEAEITESDSPQSSSTDTNHFLHTLDWQEEKEPETGLDNTSPKESQSVLIADGDGSEVSDEEEASFPSEERKPGAGEDTPRLAAGTKQQDLIFDVGMLAAPQEPVQPEEGVDLLGLHSEGDLRPAAPLQACGVPSSNTDLLSCLLEPSDAAQVGPPGDLLGGEAPLLLASPVSPLGLQNNLQGKVPDTVDPFDQFLLSSNSDTQPCSKPDLFGEFLNSDSVASSTAFPSTHSAPPPSCSTAFLHLGDLPAEPSKVIASSSHPDLLGGWDTWADTATPGPASIPVPEGTLFSSAGHPAPPGPNPSQTKSQNLDPFADLSDLSSSLQGLPAGLPAGGFVGAPAPTQKSNSPWQANRPTAPGTSWTPQAKPAPRASEQLRSHFSVIGAREERGVRVPSFAQKPKVSENDFEDLLPNQGFSKSDKKGPKTMAEMRKQELARDTDPLKLKLLDWIEGKERNIRALLSTLHTVLWDGESRWTPVSMADLVTPEQVKKQYRRAVLVVHPDKATGQPYEQYAKMIFMELNDAWSEFENQGSRPLF	binds	–	–
CLTA [clathrin, light polypeptide (Lca)] (protein, UniProt O08585 1-235) MAELDPFGAPAGAPGGPALGNGVAGAGEEDPAAAFLAQQESEIAGIENDEAFAILDGGAPGRATRRAAGGPDAVDGVMNGEYYQESNGPTDSYAAISEVDRLQSEPESIRKWREEQTERLEALDANSRKQEAEWKEKAIKELEEWYARQDEQLQKTKANNRVADEAFYKQPFADLIGYVAAEEAFVNDIDESSPGTEWERVARLCDFNPKSSKQAKDVSRMRSVLISLKQAPLVH	binds	binds	–
HIP1 [huntingtin interacting protein 1] (protein, UniProt Q8VD75 1-1029) MDRMASSMKQVSNPLPKVLSRRGVGAGMEAAERESFERTQTVSVNKAINTQEVAVKEKHARTCILGTHHEKGAQTFWSVVNRLPLSSNAMLCWKFCHVFHKLLRDGHPNVLKDSLRYKNELSDMSRMWGHLSEGYGQLCSIYLKLLRTRMEYHTKNPRFPGNLQMSDRQLDEAGESDVNNFFQLTVEMFDYLECELNLFQTVFNSLDMSRSVSVTTAGQCRLAPLIQVILDCSHLYDYTVKLLFKLHSCLPADTLQGHRDRFMEQFTKLKDLFQRSSNLQYFKRLIQIPQLPENPPNFLRASALSEHISPVVVIPAEVSSPDSEPVLEKDDLMDMDASQQTLFDNKFDDVFGSSLSSDPFNFNNQNGVNKDEKDHLIERLYREISGLTGQLDNMKIESQRAMLQLKGRVSELEAELAEQQHLGRQAMDDCEFLRTELDELKRQREDTEKAQRSLTEIERKAQANEQRYSKLKEKYSELVQNHADLLRKNAEVTKQVSVARQAQVDLEREKKELADSFARTQEQQDVLENLKHELATSRQELQVLHSNLETSAQSEAKWLTQIAELEKEQGSLATVAAQREEELSALRDQLESTQIKLAGAQESMCQQVKDQRKTLLAGIRKAAEREIQEALSQLEEPTLISCAGSTDHLLSKVSSVSSCLEQLEKNGSQYLACPEDISELLHSITLLAHLTGDTIIQGSATSLRAPPEPADSLTEACRQYGRETLAYLSSLEEEGTMENADVTALRNCLSRVKTLGEELLPRGLDIKQEELGDLVDKEMAATSAAIEAATTRIEEILSKSRAGDTGVKLEVNERILGSCTSLMQAIKVLVVASKDLQKEIVESGRGTASPKEFYAKNSRWTEGLISASKAVGWGATIMVDAADLVVQGKGKFEELMVCSREIAASTAQLVAASKVKANKGSLNLTQLQQASRGVNQATAAVVASTISGKSQIEETDSMDFSSMTLTQIKRQEMDSQVRVLELENDLQKERQKLGELRKKHYELAGVAEGWEEGTEASPSTVQEAIPDKE	binds	–	–

Other lines, results leading:

binding [1]	binding [2]	binding (GFP-ATG5 K130R (mouse))	Molecule
binds	–	–	RBCC1 (RB1-inducible coiled-coil 1) (from UniProt Q9ESK9 1-1588)
binds	binds	–	GABARAPL2/GATE-16 (from UniProt P60521 1-117)
binds	–	–	clathrin adaptor AP2 subunit A1 (from UniProt P17426 1-977)
binds	–	–	AAK1 [AP2 associated kinase 1] (from UniProt Q3UHJ0 1-959)
binds	–	–	ATG3 (from UniProt Q9CPX6 1-314)
–	–	binds	ATG2A (from UniProt Q6P4T0 1-1914)
binds	–	–	PICALM [phosphatidylinositol binding clathrin assembly protein] (protein, UniProt Q7M6Y3 1-660) MSGQSLTDRITAAQHSVTGSAVSKTVCKATTHEIMGPKKKHLDYLIQCTNEMNVNIPQLADSLFERTTNSSWVVVFKSLITTHHLMVYGNERFIQYLASRNTLFNLSNFLDKSGLQGYDMSTFIRRYSRYLNEKAVSYRQVAFDFTKVKRGADGVMRTMNTEKLLKTVPIIQNQMDALLDFNVNSNELTNGVINAAFMLLFKDAIRLFAAYNEGIINLLEKYFDMKKNQCKEGLDIYKKFLTRMTRISEFLKVAEQVGIDRGDIPDLSQAPSSLLDALEQHLASLEGKKIKDSTAASRATTLSNAVSSLASTGLSLTKVDEREKQAALEEEQARLKALKEQRLKELAKKPHTSLTTAASPVSTSAGGIMTAPAIDIFSTPSSSNSTSKLPNDLLDLQQPTFHPSVHAMSAAPQGASTWGDPFSATLDAVEDAIPSLNPFLTKSSGDVHLPIASDVSTFTTRTPTHEMFVGFSPSPVAQPHSSAGLNVDFESVFGNKSTNVAVDSGGFDELGGLLKPTVASQNQSLPVAKLPPNKLVSDDLDSSLANLVGNLGIGNGTTKNDVSWSQPGEKKLTGGSNWQPKVAPTTAWSAATMNGMHFPQYAPPVMAYPATTPTGMIGYGIPPQMGSVPVMTQPTLIYSQPVMRPPNPFGPVSGAQIQFM

From paper PMC9015699
